Test results from article PMC11607471, “E3 Ubiquitin Ligase Ring Finger Protein 2 Alleviates Cerebral Ischemia–Reperfusion Injury by Stabilizing Mesencephalic Astrocyte‐Derived Neurotrophic Factor Through Monoubiquitination” (CNS Neuroscience & Therapeutics, 2024).
These are yes or no findings as the source states them, for the method shown. For part of these data: In cells and extracts the contact can be indirect. Some binding calls cover weakened binding; strength is not graded here. For part of these data: Where a sequence is shown, tags or fusion partners need not be part of it.

Amino acid sequences for entries named in this document (tags omitted).
UniProt Q9CQJ4: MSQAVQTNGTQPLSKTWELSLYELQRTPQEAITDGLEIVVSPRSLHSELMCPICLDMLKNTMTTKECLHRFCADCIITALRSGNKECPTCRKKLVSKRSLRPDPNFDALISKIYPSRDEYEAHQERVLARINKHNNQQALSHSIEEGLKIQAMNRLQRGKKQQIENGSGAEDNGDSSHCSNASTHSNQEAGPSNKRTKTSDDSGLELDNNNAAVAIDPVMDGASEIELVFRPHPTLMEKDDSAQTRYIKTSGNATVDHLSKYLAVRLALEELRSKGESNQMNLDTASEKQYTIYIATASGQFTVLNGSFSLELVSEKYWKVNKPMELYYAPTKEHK
UniProt Q99496: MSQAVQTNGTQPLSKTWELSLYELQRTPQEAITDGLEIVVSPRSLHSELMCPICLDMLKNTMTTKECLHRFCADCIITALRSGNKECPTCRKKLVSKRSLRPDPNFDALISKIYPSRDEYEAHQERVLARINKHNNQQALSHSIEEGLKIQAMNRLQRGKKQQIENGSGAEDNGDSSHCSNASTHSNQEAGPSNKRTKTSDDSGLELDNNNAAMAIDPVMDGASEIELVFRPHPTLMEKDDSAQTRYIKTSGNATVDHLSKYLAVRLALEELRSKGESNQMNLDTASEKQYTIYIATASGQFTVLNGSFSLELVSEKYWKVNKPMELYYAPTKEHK

T1: mesencephalic astrocyte-derived neurotrophic factor (pGBKT7-MANF) (UniProt P55145)
T1 sequence: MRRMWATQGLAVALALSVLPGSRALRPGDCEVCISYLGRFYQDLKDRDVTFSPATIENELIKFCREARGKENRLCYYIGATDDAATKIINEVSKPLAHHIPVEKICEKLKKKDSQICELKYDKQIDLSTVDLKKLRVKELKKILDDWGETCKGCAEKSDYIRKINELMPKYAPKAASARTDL


What was measured:
[1] = biological target: T1, mesencephalic astrocyte-derived neurotrophic factor (pGBKT7-MANF); experiment: two-hybrid; yeast two-hybrid screen for RNF2-interacting proteins; library and bait not told
[2] = biological target: T1, mesencephalic astrocyte-derived neurotrophic factor (pGBKT7-MANF); experiment: two-hybrid; yeast back hybridization: pGBKT7-MANF and pGADT7-RNF2 co-transformed into yeast gold strain, growth and blue colour on QDO/X plates
[3] = biological target: Ring finger protein 2, endogenous in N2a cells (mouse (endogenous in N2a)) (UniProt Q9CQJ4); experiment: co-IP; lysate of N2a cells stably expressing GFP-MANF; anti-RNF2 rabbit antibody on protein A/G beads, IgG as negative control; blots with anti-GFP and anti-RNF2

Row | binding [1] | binding [2] | binding [3] | Molecule
1 | binds | binds |  | Ring finger protein 2 (pGADT7-RNF2) (from UniProt Q99496 1-336)
2 |  |  | binds | His-tagged human MANF (natural protein, UniProt P55145 25-182, looked up, human MANF; also called His-MANF; recombinant His-MANF; source: Escherichia coli BL-21, purified (Ni-NTA agarose)) LRPGDCEVCISYLGRFYQDLKDRDVTFSPATIENELIKFCREARGKENRLCYYIGATDDAATKIINEVSKPLAHHIPVEKICEKLKKKDSQICELKYDKQIDLSTVDLKKLRVKELKKILDDWGETCKGCAEKSDYIRKINELMPKYAPKAASARTDL
